# Measured values published in PubChem BioAssay AID445 (National Center for Advancing Translational Sciences (NCATS), 2006).
# This is one part of the list. Further columns of the screen follow, without active or inactive calls. The list favours compounds with an active or inconclusive main result. Potencies come from curve fits of mixed quality, noted in brackets.
# Test: IkB Signaling
# Settings: ABC-DLBCL IkBa-CBG/CBR dual luciferase ratio (green luciferase fused to IkBa over red control in OCI-Ly3 lymphoma cells), 4 h
# Outline: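 In this assay, an IκBα–CBG68 fusion accumulates when IKK-driven degradation is blocked; native CBR normalizes for cell number. OCI-Ly3 cells were treated 4 h with compound and doxycycline, then green and red light read after Chroma-Glo addition.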
# [1] = measured here: control luc red channel unless noted
# [2] = measured here: IkB-luc green channel
# [3] = measured here: control luc red channel
compound,measurement,setting,value
O=C(NCc1ccccc1Cl)c1nnc(Cc2cccc(F)c2)o1,AC50,[1],"5.01 µM [falling, partial curve]"
CCN(CC)S(=O)(=O)c1cc(C(=O)Nc2ccc(Cl)cn2)ccc1C,AC50,[1],"10 µM [falling, partial curve]"
Cc1ccc2c(CC(=O)N(Cc3ccc(N(C)C)cc3)Cc3ccco3)coc2c1C,AC50,[1],"15.8 µM [falling, partial curve]"
Cc1ccc2oc(-c3ccc(C)c(NC(=O)/C=C/c4ccco4)c3)nc2c1,AC50,[1],"25.1 µM [falling, partial curve]"
N#Cc1ccccc1CSc1nnc(-c2ccc(Br)cc2)o1,AC50,[1],"2 µM [rising, partial curve]"
O=C1CSC2(C(=O)N(Cc3cccc(C(F)(F)F)c3)c3ccccc32)N1c1ccc(F)c(F)c1 (configuration not stated),AC50,[1],"31.6 µM [falling, single point]"
COc1cccc(-c2cc(C(F)(F)F)n3ncc(C(=O)OC(C)C)c3n2)c1,AC50,[1],"1.58 µM [rising, full curve, poor fit]"
O=C(c1ccco1)N1CCN(c2ncnc3c2oc2ccccc23)CC1,AC50,[1],"25.1 µM [falling, single point]"
COc1ccc(C(=O)c2cn(CC(=O)Nc3cc(OC)cc(OC)c3)c3ccc(OC)cc3c2=O)cc1,AC50,[1],"25.1 µM [falling, partial curve]"
COC(=O)c1ccccc1NC(=O)Cn1c(=O)n(CCC(=O)NCc2ccc3c(c2)OCO3)c(=O)c2ccccc21,AC50,[1],"39.8 µM [rising, single point] [measured here: IkB-luc green channel]"
CC1=C(C(=O)OC2CCCC2)C(c2c(F)cccc2Cl)CC(=O)N1 (configuration not stated),AC50,[1],"39.8 µM [falling, single point]"
COC(=O)c1cccc2c1-c1ccccc1/C2=N/O,AC50,[2],"7.94 µM [falling, partial curve]"
same,AC50,[3],"15.8 µM [falling, partial curve]"
CCOC(=O)c1c(S(=O)(=O)N2CCC(C(=O)NCc3cccc(OC)c3)CC2)c(C)n(C)c1C,AC50,[1],"0.00631 µM [rising, full curve, poor fit]"
CCC(C)(C)n1nnnc1C(c1cc2cc(OC)c(OC)cc2[nH]c1=O)N1CCc2ccccc21 (configuration not stated),AC50,[1],"31.6 µM [falling, single point]"
Cc1cccc(N(C)C(=O)Cn2c(=O)oc3cc(S(=O)(=O)N4CCCCC4)ccc32)c1,AC50,[1],"31.6 µM [falling, single point]"
Cn1ccnc1SCC(=O)Nc1cccc(Br)c1,AC50,[1],"1.58 µM [rising, full curve, poor fit]"
CCN1CCc2c(sc(NC(=O)c3ccc(S(=O)(=O)N4CCCC(C)C4)cc3)c2C(=O)OC)C1 (configuration not stated),AC50,[1],"12.6 µM [falling, single point]"
Cc1ccccc1Cn1c(CN2CCC(C(=O)NCc3ccc(Cl)cc3)CC2)cc2ccccc21,AC50,[1],"31.6 µM [falling, partial curve]"
Cc1cc(C)c(OCC(=O)N(Cc2ccc(N(C)C)cc2)Cc2ccco2)c(C)c1,AC50,[1],"15.8 µM [falling, partial curve]"
O=C(NCc1ccc2c(c1)OCO2)c1ccc2c(c1)N(Cc1c(F)cccc1Cl)C(=O)c1ccccc1S2,AC50,[1],"2.51 µM [falling, single point]"
CCOc1ccc(NS(=O)(=O)c2ccc3c(c2)NC(=O)CCS3)cc1,AC50,[1],"12.6 µM [falling, partial curve]"
COc1ccc(C2=NC(c3ccccc3)=Nc3ccc(C)cc3N2)cc1,AC50,[1],"25.1 µM [falling, single point]"
O=C1c2ccccc2C(=O)C1(O)O,AC50,[2],"39.8 µM [rising, partial curve]"
same,AC50,[3],"31.6 µM [falling, partial curve]"
COc1ccccc1N1CCN(CC(O)COc2ccc(Cl)c(C)c2)CC1 (configuration not stated),AC50,[1],"39.8 µM [falling, single point]"
CN1CCN(C(=O)c2ccc3c(c2)N(Cc2ccc(F)cc2)C(=O)c2ccccc2S3(=O)=O)CC1,AC50,[1],"5.01 µM [falling, partial curve, poor fit]"
O=C(CSc1n[nH]c(-c2ccc(F)cc2)n1)N1CCN(c2ccc(F)cc2)CC1,AC50,[1],"39.8 µM [falling, single point]"
Cc1nc2ccn(Cc3ccco3)c(=O)c2cc1C(=O)NCc1ccc(Cl)cc1,AC50,[1],"39.8 µM [falling, single point]"
Cc1ccc(CNC(=O)c2ccc3c(c2)CCN3S(=O)(=O)c2ccc(Br)cc2)cc1,AC50,[1],"6.31 µM [falling, partial curve]"
COc1ccc(N2CC(NC(=O)C3CCCCC3)CC2=O)cc1 (configuration not stated),AC50,[1],"5.01 µM [rising, partial curve]"
CCn1c(SCC(=O)Nc2cc(C)ccc2F)nnc1-c1ccccc1O,AC50,[1],"25.1 µM [falling, single point]"

# A different layout for part of the listing above.
compound | measurement | setting | value
O=C(NCc1ccccc1Cl)c1nnc(Cc2cccc(F)c2)o1 | AC50 | [1] | 5.01 µM [falling, partial curve]
O=C(c1ccco1)N1CCN(c2ncnc3c2oc2ccccc23)CC1 | AC50 | [1] | 25.1 µM [falling, single point]
